Experimental data reported in publication PMC5437649.
These are yes or no findings as the source states them, for the method shown. Binding seen in cells or lysates may run through a third protein. Some entries that bind do so weakly or less than the wild type.

Amino acid sequences for entries named in this document (tags omitted).
UniProt Q15672: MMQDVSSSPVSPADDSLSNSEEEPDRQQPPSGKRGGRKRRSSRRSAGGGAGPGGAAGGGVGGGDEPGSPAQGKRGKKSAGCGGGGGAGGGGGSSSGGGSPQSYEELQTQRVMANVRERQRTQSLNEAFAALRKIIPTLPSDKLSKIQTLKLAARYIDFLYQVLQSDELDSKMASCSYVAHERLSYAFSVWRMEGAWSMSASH
UniProt P15923: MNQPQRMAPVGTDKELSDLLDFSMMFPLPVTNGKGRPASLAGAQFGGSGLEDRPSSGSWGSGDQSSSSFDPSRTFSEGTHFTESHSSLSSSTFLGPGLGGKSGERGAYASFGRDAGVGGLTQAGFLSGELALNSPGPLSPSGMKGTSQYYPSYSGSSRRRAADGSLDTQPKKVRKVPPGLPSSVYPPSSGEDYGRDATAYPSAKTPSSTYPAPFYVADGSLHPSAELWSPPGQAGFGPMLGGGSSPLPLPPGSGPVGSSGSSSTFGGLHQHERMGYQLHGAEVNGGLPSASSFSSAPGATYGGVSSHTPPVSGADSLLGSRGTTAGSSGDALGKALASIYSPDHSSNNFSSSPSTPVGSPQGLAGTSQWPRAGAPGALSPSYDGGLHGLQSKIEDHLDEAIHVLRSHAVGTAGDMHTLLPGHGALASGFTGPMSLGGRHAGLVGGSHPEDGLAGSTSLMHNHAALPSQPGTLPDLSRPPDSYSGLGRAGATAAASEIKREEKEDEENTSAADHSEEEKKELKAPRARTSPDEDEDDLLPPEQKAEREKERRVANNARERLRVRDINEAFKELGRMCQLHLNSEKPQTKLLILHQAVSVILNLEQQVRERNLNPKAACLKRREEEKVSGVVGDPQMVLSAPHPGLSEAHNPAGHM

Molecular target: FLAG-TWIST1 (wild type) (human) (UniProt Q15672)
Experiment: co-IP; anti-FLAG M2 resin on lysates of transiently transfected HEK293T cells; lysis and washes in EBC (20 mM Tris pH 8.0, 385 mM NaCl, 2 mM EDTA, 3.5% NP40); blots with FLAG and E2A (V18) antibodies; complexes read from band sizes on SDS-PAGE

MYC-TAG E12 (wild type) (from UniProt P15923 1-654)
binding: binds
